The Kd is the concentration at which binding is half-saturated.

The exact form of at least one protein or probe is not confirmed.

For series [1], the system named is PG-ptau (tau 1N4R phosphorylated by PKA and GSK-3β). Description: fluorescence anisotropy. The conditions noted are these: 10 mM NaCl; FA: 10 nM DNA, same buffer with 10 mM NaCl, 0.01% NP-40 substitute, room temperature 10 min; recombinant protein; label: 5' 6-FAM on strand 1. (In fluorescence polarisation assays a small probe gives low polarisation when free and higher when bound to something large.)

Series [2] has the same test system. In words: EMSA. The conditions noted are these: 10 mM NaCl; EMSA: 20 nM DNA or nucleosome, 20 mM HEPES pH 7.2, 10 mM NaCl (or 150), 0.5 mM TCEP, 0.1% Tween-20, 5% sucrose, room temperature 20 min; recombinant protein; label: 5' 6-FAM on strand 1. Background: A gel shift assay detects complexes by their altered migration in electrophoresis.

Take “ATTTAGAAATGTCCACTGTAGG (double strand) [22 bp DNA]”: the Kd is 76 nM in series [1] and 600 nM in series [2].
